From patent publication US20250297004A1, “NECTIN-4 BINDING AGENTS” (INNATE PHARMA, priority 2022, published 2025) come the findings set out here.

In the experiment the target is T1, human Nectin-4 expressed on cells (human, UniProt Q96NY8 32-510).
T1 sequence: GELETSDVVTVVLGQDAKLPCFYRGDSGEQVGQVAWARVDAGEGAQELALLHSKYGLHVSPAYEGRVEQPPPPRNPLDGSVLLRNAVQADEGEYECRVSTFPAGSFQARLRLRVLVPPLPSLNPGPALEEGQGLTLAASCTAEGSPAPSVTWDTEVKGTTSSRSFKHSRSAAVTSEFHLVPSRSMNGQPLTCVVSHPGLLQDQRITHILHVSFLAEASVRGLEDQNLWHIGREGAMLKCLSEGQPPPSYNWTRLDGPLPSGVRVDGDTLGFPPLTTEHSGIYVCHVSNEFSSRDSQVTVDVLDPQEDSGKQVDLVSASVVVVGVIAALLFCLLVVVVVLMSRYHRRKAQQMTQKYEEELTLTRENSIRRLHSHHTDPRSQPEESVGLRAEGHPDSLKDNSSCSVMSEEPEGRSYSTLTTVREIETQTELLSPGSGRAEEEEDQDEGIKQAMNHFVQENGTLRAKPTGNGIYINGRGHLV
As to the kind of experiment: flow cytometry on cells expressing Nectin-4.

These are yes or no findings as the source states them, for the method shown. Some results given as binding are weak or reduced against the parent protein; the word gives no strength.

B1: chimeric parental 5E7 antibody (antibody, V domains shown)
VH: QVQLQQPGAELVKPGASVKLSCKASGYIFTSYWMHWVKQRPGQGLEWIGEIDPSDSYTNYNQKFKGKATLTLDKSSSTTYMQLSSLTSEDSAVYYCVRGYGNYGDYWGQGTTLTVSS
VL: DVVMTQAAFSNPVTLGTSASISCRSSKSLLHSNGITYLYWYLQKPGQSPQLLIYQMSNLASGVPDRFSSSGSGTDFTLRISRVEAEDVGVYYCAQNLELPWTFGGGTKLEIKR
notes: Chimeric antibody, murine variable domains with human constant regions; also called ch5E7; CHG1-M-1N4-5E7
For the molecule B1, the binding result is “binds”.
